± gives the standard deviation of the averaged measurements. Small differences around the control level are noise.
Assays:
Assay in all cases: level (log10 ratio to DMSO vehicle control); higher = higher biomarker level / cell amount than vehicle control
1H,1H-Heptafluorobutanol = compound: OCC(F)(F)C(F)(F)C(F)(F)F [1H,1H-Heptafluorobutanol]; settings: 2200 nM; in DMSO
Protocol: (§1)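 BioMAP Diversity Plus panel of 12 human primary cell co-culture systems (3C, 4H, LPS, SAg, BT, BF4T, BE3C, CASM3C, HDF3CGF, KF3CT, MyoF, Mphg). Compounds were added 1 h before stimulation and left for 24 h (MyoF 48 h; BT 72 h for soluble read-outs or 6 d for IgG). Biomarkers were read by ELISA, cytotoxicity by SRB, PBMC viability and proliferation by Alamar Blue. Each well value was divided by the mean of 8 DMSO control wells on the same plate and log10 transformed; duplicate blinded samples were tested at 4 concentrations.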

Heptafluorobutyramide = compound: NC(=O)C(F)(F)C(F)(F)C(F)(F)F [Heptafluorobutyramide]; settings: 2200 nM; in DMSO
Protocol: as §1

[1] = compound: FC(F)(F)C(F)(F)C(F)(F)C(F)(F)C(F)(F)C(F)(F)CC1CO1 [3-(Perfluorohexyl)-1,2-epoxypropane]; settings: 2200 nM; in DMSO
Protocol: as §1

[2] = compound: OCCC(F)(F)C(F)(F)C(F)(F)C(F)(F)C(F)(F)C(F)(F)F [6:2 Fluorotelomer alcohol]; settings: 2200 nM; in DMSO
Protocol: as §1

Perfluoropentanoic acid = compound: O=C(O)C(F)(F)C(F)(F)C(F)(F)C(F)(F)F [Perfluoropentanoic acid]; settings: in DMSO
Protocol: as §1

Perfluoroheptanoic acid = compound: O=C(O)C(F)(F)C(F)(F)C(F)(F)C(F)(F)C(F)(F)C(F)(F)F [Perfluoroheptanoic acid]; settings: in DMSO
Protocol: as §1

[3] = compound: O=C(O)C(F)(F)C(F)(F)C(F)(F)C(F)(F)C(F)(F)C(F)(F)C(F)(F)C(F)(F)C(F)(F)C(F)F [11-H-Perfluoroundecanoic acid]; settings: 2200 nM; in DMSO
Protocol: as §1

[4] = compound: CCN(CCO)S(=O)(=O)C(F)(F)C(F)(F)C(F)(F)C(F)(F)C(F)(F)C(F)(F)C(F)(F)C(F)(F)F [N-Ethyl-N-(2-hydroxyethyl)perfluorooctanesulfonamide]; settings: in DMSO
Protocol: as §1

[5] = compound: O=S(=O)(O)CCC(F)(F)C(F)(F)C(F)(F)C(F)(F)C(F)(F)C(F)(F)C(F)(F)C(F)(F)F [8:2 Fluorotelomer sulfonic acid]; settings: in DMSO
Protocol: as §1

[6] = compound: O=C(O)C(F)(F)C(F)(F)C(F)(F)OC(F)(F)F [Perfluoro(4-methoxybutanoic) acid]; settings: 2200 nM; in DMSO
Protocol: as §1

[7] = compound: CC(C)(C)C(=O)CC(=O)C(F)(F)C(F)(F)C(F)(F)F [(Heptafluorobutanoyl)pivaloylmethane]; settings: 2200 nM; in DMSO
Protocol: as §1

[8] = compound: CN(C(=O)C(F)(F)C(F)(F)C(F)(F)F)[Si](C)(C)C [N-Methyl-N-trimethylsilylheptafluorobutyramide]; settings: 2200 nM; in DMSO
Protocol: as §1

[9] = compound: Cc1ccc(S(=O)(=O)OCC(F)(F)C(F)(F)C(F)(F)C(F)(F)C(F)(F)C(F)F)cc1 [1H,1H,7H-Perfluoroheptyl 4-methylbenzenesulfonate]; settings: 2200 nM; in DMSO
Protocol: as §1

Octafluoroadipic acid = compound: O=C(O)C(F)(F)C(F)(F)C(F)(F)C(F)(F)C(=O)O [Octafluoroadipic acid]; settings: 2200 nM; in DMSO
Protocol: as §1

1-(Perfluorohexyl)octane = compound: CCCCCCCCC(F)(F)C(F)(F)C(F)(F)C(F)(F)C(F)(F)C(F)(F)F [1-(Perfluorohexyl)octane]; settings: in DMSO
Protocol: as §1

[10] = compound: NCC(F)(F)C(F)(F)C(F)(F)C(F)(F)C(F)(F)C(F)(F)C(F)(F)F [1H,1H-Perfluorooctylamine]; settings: 2200 nM; in DMSO
Protocol: as §1

Row | Test System | level (log10) (1H,1H-Heptafluorobutanol) | level (log10) (Heptafluorobutyramide) | level (log10) [1] | level (log10) [2] | level (log10) (Perfluoropentanoic acid; 2200 nM) | level (log10) (Perfluoropentanoic acid; 6700 nM) | level (log10) (Perfluoropentanoic acid; 20000 nM) | level (log10) (Perfluoropentanoic acid; 60000 nM) | level (log10) (Perfluoroheptanoic acid; 2200 nM) | level (log10) (Perfluoroheptanoic acid; 6700 nM) | level (log10) (Perfluoroheptanoic acid; 20000 nM) | level (log10) (Perfluoroheptanoic acid; 60000 nM) | level (log10) [3] | level (log10) ([4]; 2200 nM) | level (log10) ([4]; 6700 nM) | level (log10) ([4]; 20000 nM) | level (log10) ([5]; 2200 nM) | level (log10) ([5]; 6700 nM) | level (log10) ([5]; 20000 nM) | level (log10) ([5]; 60000 nM) | level (log10) [6] | level (log10) [7] | level (log10) [8] | level (log10) [9] | level (log10) (Octafluoroadipic acid) | level (log10) (1-(Perfluorohexyl)octane; 740 nM) | level (log10) (1-(Perfluorohexyl)octane; 2200 nM) | level (log10) [10]
1 | BT:sTNF-alpha | 0.0275 ± 0.084 | 0.07 ± 0.058 | -0.0065 ± 0.12 | 0.0085 ± 0.021 | 0.111 ± 0.089 | -0.0575 ± 0.25 | 0.0875 ± 0.012 | 0.105 ± 0.04 | -0.0335 ± 0.09 | -0.0045 ± 0.11 | -0.0405 ± 0.05 | -0.064 ± 0.17 | -0.202 ± 0.09 | 0.121 ± 0.12 | -0.031 ± 0.082 | -0.312 ± 0.1 | 0.005 ± 0.089 | 0.006 ± 0.095 | 0 ± 0.0071 | 0.009 ± 0.034 | 0.0285 ± 0.039 | 0.0485 ± 0.16 | -0.0425 ± 0.037 | 0.0505 ± 0.05 | -0.007 ± 0.057 | 0.0075 ± 0.11 | 0.0695 ± 0.0021 | -0.0425 ± 0.12
2 | SAg:SRB | -0.0015 ± 0.0021 | -0.0145 ± 0.0035 | -0.008 ± 0.011 | 0 ± 0.014 | -0.008 ± 0.016 | -0.007 ± 0.0099 | -0.0035 ± 0.00071 | 0.0055 ± 0.015 | -0.022 ± 0.0028 | -0.0155 ± 0.013 | 0.001 ± 0.011 | -0.0385 ± 0.016 | 0.011 ± 0.014 | -0.0065 ± 0.0021 | -0.046 ± 0.0057 | -0.118 ± 0.024 | 0.002 ± 0.023 | -0.0075 ± 0.0035 | -0.0095 ± 0.0035 | -0.0335 ± 0.011 | -0.02 ± 0.011 | 0.006 ± 0.0028 | 0.008 ± 0.0085 | 0.001 ± 0.017 | -0.018 ± 0.0099 | 0.015 ± 0.0057 | 0.0075 ± 0.0064 | 0.01 ± 0.011
3 | BF4T:CCL26/Eotaxin-3 | 0.044 ± 0.0057 | 0.023 ± 0.042 | 0.0185 ± 0.11 | -0.009 ± 0.15 | 0.0055 ± 0.079 | -0.0155 ± 0.029 | -0.0165 ± 0.0092 | 0.018 ± 0.05 | 0.0915 ± 0.039 | 0.0145 ± 0.019 | -0.0055 ± 0.013 | -0.031 ± 0.081 | -0.143 ± 0.042 | 0.079 ± 0.03 | 0.0905 ± 0.029 | 0.141 ± 0.0028 | 0.001 ± 0.09 | -0.0635 ± 0.05 | -0.179 ± 0.05 | -0.203 ± 0.0099 | 0.0435 ± 0.05 | 0.028 ± 0.03 | -0.004 ± 0.027 | 0.0075 ± 0.083 | 0.036 ± 0.014 | 0.0225 ± 0.061 | 0.024 ± 0.055 | 0.0155 ± 0.09
4 | BF4T:MMP-9 | -0.0115 ± 0.049 | 0.0265 ± 0.036 | 0.02 ± 0.024 | 0.0195 ± 0.04 | -0.0005 ± 0.029 | -0.0115 ± 0.0064 | -0.0115 ± 0.019 | -0.0005 ± 0.035 | 0.031 ± 0.028 | 0.0145 ± 0.016 | 0.0445 ± 0.022 | 0.103 ± 0.054 | -0.057 ± 0.042 | 0.0265 ± 0.036 | -0.012 ± 0.014 | -0.032 ± 0.0014 | 0.0405 ± 0.018 | 0.0065 ± 0.015 | -0.003 ± 0.0014 | -0.0215 ± 0.005 | 0.031 ± 0.0014 | -0.0005 ± 0.083 | -0.003 ± 0.047 | -0.0175 ± 0.019 | 0.019 ± 0.033 | 0.0005 ± 0.012 | -0.0125 ± 0.0021 | 0.003 ± 0.025
5 | SAg:CD69 | -0.0115 ± 0.022 | 0.039 ± 0.0099 | 0.001 ± 0.0042 | -0.001 ± 0.027 | 0.0095 ± 0.015 | 0.002 ± 0.016 | -0.0155 ± 0.028 | -0.0165 ± 0.033 | -0.0155 ± 0.012 | -0.006 ± 0.0014 | -0.0145 ± 0.0021 | -0.008 ± 0.017 | 0.016 ± 0.041 | 0.007 ± 0.021 | -0.043 ± 0.016 | -0.085 ± 0.04 | -0.012 ± 0.051 | -0.025 ± 0.057 | -0.0205 ± 0.04 | -0.043 ± 0.075 | 0.031 ± 0.081 | -0.0085 ± 0.042 | -0.002 ± 0.04 | 0.015 ± 0.047 | 0.0325 ± 0.081 | -0.011 ± 0.033 | -0.025 ± 0.033 | -0.0125 ± 0.019
6 | BE3C:MMP-9 | 0.013 ± 0.016 | -0.002 ± 0.0085 | -0.0095 ± 0.0078 | 0.0155 ± 0.028 | 0.0055 ± 0.042 | -0.0325 ± 0.0078 | -0.0105 ± 0.015 | 0.0215 ± 0.035 | 0.0245 ± 0.011 | 0.0015 ± 0.018 | 0.042 ± 0.0014 | 0.0785 ± 0.057 | -0.024 ± 0.033 | 0.0045 ± 0.021 | 0.018 ± 0.0071 | -0.0535 ± 0.04 | 0.0015 ± 0.00071 | 0.0045 ± 0.0064 | 0.0325 ± 0.035 | 0.015 ± 0.031 | 0.0155 ± 0.019 | -0.01 ± 0.0099 | 0.0065 ± 0.0035 | 0.0075 ± 0.005 | 0.006 ± 0.017 | 0.011 ± 0.037 | -0.009 ± 0.011 | 0.0055 ± 0.028
7 | BE3C:MMP-1 | -0.003 ± 0.03 | 0.0215 ± 0.037 | 0.046 ± 0.072 | -0.0165 ± 0.0078 | 0.0195 ± 0.084 | -0.015 ± 0.03 | -0.0175 ± 0.029 | 0.027 ± 0.047 | 0.0705 ± 0.037 | 0.0345 ± 0.015 | 0.0405 ± 0.043 | 0.0865 ± 0.067 | 0.0195 ± 0.037 | 0.083 ± 0.0071 | 0.255 ± 0.03 | 0.328 ± 0.0071 | 0.0285 ± 0.022 | 0.048 ± 0.024 | 0.1715 ± 0.00071 | 0.232 ± 0.027 | 0.0255 ± 0.036 | -0.002 ± 0.017 | 0.02 ± 0.064 | 0.0355 ± 0.035 | 0.017 ± 0.086 | 0.0205 ± 0.013 | 0.0055 ± 0.0064 | -0.0185 ± 0.021
8 | BE3C:Keratin 8/18 | -0.0245 ± 0.013 | -0.0145 ± 0.025 | -0.004 ± 0.0028 | -0.0045 ± 0.025 | 0.0125 ± 0.018 | -0.006 ± 0.0057 | -0.011 ± 0.0071 | 0.0035 ± 0.032 | 0.0045 ± 0.03 | -0.0135 ± 0.005 | -0.0135 ± 0.0078 | -0.0025 ± 0.012 | -0.0135 ± 0.044 | -0.01 ± 0.018 | 0 ± 0.014 | -0.007 ± 0.014 | -0.008 ± 0.0071 | 0.007 ± 0.0042 | 0.017 ± 0.0085 | 0.043 ± 0.014 | -0.0105 ± 0.005 | 0.013 ± 0.021 | -0.002 ± 0.025 | -0.012 ± 0.0042 | 0.004 ± 0.027 | 0.0165 ± 0.011 | -0.0005 ± 0.0035 | -0.013 ± 0.0085
9 | CASM3C:Proliferation | 0.009 ± 0.0057 | -0.012 ± 0.044 | -0.023 ± 0.0042 | -0.0105 ± 0.00071 | 0.0015 ± 0.0035 | 0.0185 ± 0.021 | -0.0305 ± 0.067 | 0.0215 ± 0.052 | -0.0135 ± 0.005 | -0.023 ± 0.0085 | -0.008 ± 0.035 | 0.0045 ± 0.053 | -0.033 ± 0.047 | 0.025 ± 0.041 | 0.011 ± 0.04 | -0.175 ± 0.005 | 0.01 ± 0.031 | 0.005 ± 0.072 | 0.0065 ± 0.022 | 0.0245 ± 0.023 | -0.0455 ± 0.039 | 0.0205 ± 0.028 | 0.0305 ± 0.033 | -0.017 ± 0.011 | -0.0045 ± 0.019 | -0.028 | -0.036 ± 0.041 | -0.0225 ± 0.044
